This is an account of results in PMC6508740.

In one experiment the target is T1, GRXS17 (Arabidopsis) (UniProt Q9ZPH2).
T1 sequence: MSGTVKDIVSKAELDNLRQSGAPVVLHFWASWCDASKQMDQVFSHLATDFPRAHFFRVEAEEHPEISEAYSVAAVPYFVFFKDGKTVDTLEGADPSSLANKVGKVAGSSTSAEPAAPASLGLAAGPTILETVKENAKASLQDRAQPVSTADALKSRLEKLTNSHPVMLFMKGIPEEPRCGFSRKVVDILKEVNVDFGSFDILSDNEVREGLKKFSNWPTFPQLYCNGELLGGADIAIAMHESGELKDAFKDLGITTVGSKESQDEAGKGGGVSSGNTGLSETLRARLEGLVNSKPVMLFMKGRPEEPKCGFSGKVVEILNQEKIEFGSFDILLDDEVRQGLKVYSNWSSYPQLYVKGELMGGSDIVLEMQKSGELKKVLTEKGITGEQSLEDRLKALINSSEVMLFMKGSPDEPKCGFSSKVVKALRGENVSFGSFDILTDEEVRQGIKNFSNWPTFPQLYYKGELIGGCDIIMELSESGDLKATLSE
Briefly: two-hybrid; yeast AH109; DRE2 forms in pGAD-T7 (AD), GRXS17 in pGBK-T7 (BD); growth on SD-TLH medium with 1 mM 3AT (Fig 4B).

The target in a further experiment is T2, TAH18 (UniProt Q6NPS8).
T2 sequence: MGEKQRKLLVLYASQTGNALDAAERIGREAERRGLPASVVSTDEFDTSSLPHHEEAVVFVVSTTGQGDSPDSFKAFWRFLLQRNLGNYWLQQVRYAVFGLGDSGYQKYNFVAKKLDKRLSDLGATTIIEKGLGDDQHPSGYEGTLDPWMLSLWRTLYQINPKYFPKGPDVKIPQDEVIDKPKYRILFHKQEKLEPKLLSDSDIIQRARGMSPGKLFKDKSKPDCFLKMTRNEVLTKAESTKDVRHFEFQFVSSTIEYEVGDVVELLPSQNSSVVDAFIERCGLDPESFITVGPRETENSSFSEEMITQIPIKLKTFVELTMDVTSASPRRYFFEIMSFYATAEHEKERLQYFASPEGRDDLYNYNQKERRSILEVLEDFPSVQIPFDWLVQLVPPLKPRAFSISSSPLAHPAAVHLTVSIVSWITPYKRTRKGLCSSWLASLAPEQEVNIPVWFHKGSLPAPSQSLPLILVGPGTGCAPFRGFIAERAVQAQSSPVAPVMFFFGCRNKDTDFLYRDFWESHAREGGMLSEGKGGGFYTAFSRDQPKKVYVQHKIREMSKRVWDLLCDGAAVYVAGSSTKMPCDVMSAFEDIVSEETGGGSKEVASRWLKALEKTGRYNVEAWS
Description: two-hybrid; yeast AH109; DRE2 forms in pGAD-T7 (AD), TAH18 or NBP35 in pGBK-T7 (BD); growth on SD-TL, SD-TLH and SD-TLHA (Fig 4A).

A further experiment deals with T3, NBP35 (Arabidopsis) (UniProt Q8H1Q2).
T3 sequence: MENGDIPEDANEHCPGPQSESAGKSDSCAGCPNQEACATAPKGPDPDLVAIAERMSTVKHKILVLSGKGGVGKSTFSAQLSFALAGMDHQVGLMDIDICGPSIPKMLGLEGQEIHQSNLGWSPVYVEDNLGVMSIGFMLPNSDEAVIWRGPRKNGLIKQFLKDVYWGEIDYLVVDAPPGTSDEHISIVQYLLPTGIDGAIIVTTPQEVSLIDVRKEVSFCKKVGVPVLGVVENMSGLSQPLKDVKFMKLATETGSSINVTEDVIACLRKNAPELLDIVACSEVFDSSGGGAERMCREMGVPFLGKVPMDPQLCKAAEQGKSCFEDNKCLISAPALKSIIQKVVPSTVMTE
The description is as above.

These are yes or no findings as the source states them, for the method shown. Binding can be weak; no strength is given.

Take DRE2 (wild type) (Arabidopsis): the binding result in the experiment with GRXS17 (Arabidopsis) and in the experiment with TAH18 was “binds” throughout.

In the case of DRE2-3 (Arabidopsis), the binding result with NBP35 (Arabidopsis) and in the experiment with TAH18 was “binds” each time.

As to DRE2^Δ6 (Arabidopsis), the binding entry with GRXS17 (Arabidopsis), with NBP35 (Arabidopsis) and with TAH18 was “binds” throughout.

Regarding DRE2^Δ75 (Arabidopsis), the figures for the binding result in the experiment with GRXS17 (Arabidopsis), in the experiment with NBP35 (Arabidopsis) and with TAH18 were “no binding”, “binds” and “binds”, respectively.
